{"source": "PubChem BioAssay AID493014", "about": "(National Center for Advancing Translational Sciences (NCATS), 2011)", "note": "The campaign covered roughly 340,000 compounds. About 170 (0.05%) were called active. This list was built around the results that the source calls inconclusive (neither active nor inactive); the mix of calls is not that of the screen. Calls follow the shape of the dose curve; as a rule, active = well fitted inhibition curve with a large enough effect in the signal ratio, with a control signal flat (not every such curve was filed as active); inconclusive = small, poorly fitted or top-dose-only effect, or effect the other way, or a change in a side signal; inactive = flat fitted curve, though single readings scatter; the % refers to the signal ratio. A potency beside an inconclusive call is a rough fit, not a confirmed value. Potency is read from the fitted curve at half-maximal effect."}
{"test": "qHTS Assay to Find Inhibitors of Chronic Active B-Cell Receptor Signaling;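 as to activity change, negative = inhibition: plate controls were basal doxycycline-induced cells for no effect and cells given 10 µM MG132 for full effect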", "conditions": "ABC-DLBCL IkBa-CBG/CBR reporter, luminescence ratio (green luciferase fused to IkBa over red control in TMD8 lymphoma cells), 4 h; activity change, negative = inhibition: at 46.1 µM (top of the series) unless noted", "in_short": "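TMD8 human ABC-DLBCL cells with doxycycline-inducible IκBα–green luciferase fusion and unfused red luciferase, in 0.5% FBS medium; compounds up to 46 uM, 4 h at 37C. Green/red luminescence ratio, filter-overlap corrected, fitted to concentration-response curves.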"}
{"molecule": "Cc1cccc2sc(NC(=O)CSc3nnnn3C)nc12", "activity change, negative = inhibition": "inconclusive: -2%"}
{"molecule": "Cc1ccc(NS(=O)(=O)c2cc(C(=O)NCc3ccccn3)ccc2Cl)cc1C", "activity change, negative = inhibition": "inactive: -2.26%"}
{"molecule": "Cc1ccc(Nc2c(-c3ccc(C)o3)nc3cnccn23)cc1", "Potency": "inconclusive: 4.11 µM [rising, full curve]"}
{"molecule": "O=[N+]([O-])c1cccc(OCCN2CCC(Cc3ccccc3)CC2)c1", "activity change, negative = inhibition": "inconclusive: -8.52%"}
{"molecule": "Cc1nc(NC(=O)COc2ccccc2)sc1C(=O)Nc1ccccc1", "Potency": "inconclusive: 16.4 µM [falling, single point]"}
{"molecule": "COc1ccccc1N1CCN(/N=C/C(Cl)=C/c2ccccc2)CC1", "activity change, negative = inhibition": "inactive: 0.973%"}
{"molecule": "CN(CC(=O)Nc1ccccc1Sc1ccccc1)C1CCCCC1", "Potency": "inconclusive: 35.5 µM [rising, single point]"}
{"molecule": "Cc1ccc(N2C(=O)c3ccccc3C2C(=O)c2cc(C)ccc2O)cc1", "note": "(configuration not stated)", "Potency": "inconclusive: 29.1 µM [falling, single point]"}
{"molecule": "CN(C)S(=O)(=O)c1ccc(NC(=S)NC(=O)c2cccs2)cc1", "activity change, negative = inhibition": "inactive: -7%"}
{"molecule": "Cc1ccccc1CSc1nnc(-c2ccccc2)c(=O)[nH]1", "Potency": "inconclusive: 7.08 µM [rising, full curve]"}
{"molecule": "O=C(CONS(=O)(=O)c1ccc(Cl)cc1)NCCNc1ncc(C(F)(F)F)cc1Cl", "activity change, negative = inhibition": "inconclusive: -15.2%"}
{"molecule": "COC(=O)[C@@H](CC(C)C)N(Cc1ccccc1)S(=O)(=O)N(Cc1ccccc1)[C@@H](CC(C)C)C(=O)OC", "activity change, negative = inhibition": "inactive: 0.46%"}
{"molecule": "CC(=O)N1CCN(Cc2nc3cc(NC(=O)c4ccccc4C)ccc3n2C)CC1", "Potency": "inconclusive: 8.91 µM [falling, partial curve]"}
{"molecule": "O=C(N/N=C/c1ccc(OC(=O)c2cccs2)cc1)c1ccccn1", "activity change, negative = inhibition": "inconclusive: -11.6%"}
{"molecule": "O=C(CNc1cc(S(=O)(=O)N2CCOCC2)ccc1NCC1CCCO1)Nc1ccc(F)c(F)c1", "note": "(configuration not stated)", "activity change, negative = inhibition": "inconclusive: -2.75%"}
{"molecule": "CCc1ccc2c(c1)c(N=NC1=NC(=O)CS1)c(O)n2CC", "activity change, negative = inhibition": "inactive: 9.14%"}
{"molecule": "CCN(C(=O)CSc1nnc(-c2c[nH]c3ccccc23)o1)C1CCS(=O)(=O)C1", "note": "(configuration not stated)", "Potency": "inconclusive: 17.8 µM [falling, single point]"}
{"molecule": "O=S(=O)(Nc1ccccc1F)c1cccc(NC(=S)NCCN2CCOCC2)c1", "activity change, negative = inhibition": "inactive: -9.02%"}
{"molecule": "O=C(NCc1cccnc1)c1ccc(-c2ccc(Cl)cc2)o1", "Potency": "inconclusive: 3.16 µM [rising, partial curve, poor fit]"}
{"molecule": "CN(C)C(=O)CSc1nnc(-c2ccc(F)cc2)c2ccccc12", "activity change, negative = inhibition": "inactive: -21%"}
{"molecule": "c1ccc(Oc2cccc(OCCCn3cncn3)c2)cc1", "activity change, negative = inhibition": "inconclusive: -5.42%"}
{"molecule": "CCn1cc(C(=O)NCC2CCCO2)c(=O)c2cc(S(=O)(=O)N3CCCCC3)ccc21", "note": "(configuration not stated)", "activity change, negative = inhibition": "inconclusive: 2.32%"}
{"molecule": "CCOc1ccc2c(CC)cc(=O)oc2c1OCC", "activity change, negative = inhibition": "inconclusive: -8.26%"}
{"molecule": "O=C(/C=C/c1ccc(F)cc1)NCCNC(=O)/C=C/c1ccc(F)cc1", "activity change, negative = inhibition": "inconclusive: 1.5%"}
{"molecule": "COc1ccccc1N(CC(=O)Nc1cccnc1)S(C)(=O)=O", "activity change, negative = inhibition": "inconclusive: 0.417%"}
{"molecule": "Cc1nnc(SCC(=O)NC2CCCCCC2)n1N", "activity change, negative = inhibition": "inconclusive: 3.64%"}
{"molecule": "COc1cccc(N2CCN(CC(=O)NC3=Nc4ccccc4N=C(C)C3c3ccccc3)CC2)c1", "note": "(configuration not stated)", "activity change, negative = inhibition": "inconclusive: 6.96%"}
{"molecule": "CCOC(=O)C1(Cc2ccc(Cl)cc2)CCN(C(=O)CCc2cnccn2)CC1", "activity change, negative = inhibition": "inactive: -3.68%"}
{"molecule": "CCN(CC)c1ccc(/C=N/NC(=O)CNC(=O)/C=C/c2ccco2)cc1", "activity change, negative = inhibition": "inactive: -26.8%"}
{"molecule": "O=S(=O)(NCc1cc(-c2ccccc2)no1)c1ccc(Cl)cc1", "activity change, negative = inhibition": "inconclusive: 23%"}
{"molecule": "Cn1c(=O)c2c(nc(NCc3cccnc3)n2Cc2ccc(Cl)cc2)n(C)c1=O", "activity change, negative = inhibition": "inconclusive: 12.4%"}
{"molecule": "Cc1ccccc1N=Cc1cc2c(cc1O)OC(N)=C(C#N)C2c1ccccc1", "note": "(configuration not stated)", "Potency": "inconclusive: 20.6 µM [falling, single point]"}
{"molecule": "Nc1ccnn1Cc1ccc(Br)s1", "activity change, negative = inhibition": "inconclusive: 1.84%"}
{"molecule": "COc1ccccc1-c1noc(CSc2nc(C)cc(=O)[nH]2)n1", "Potency": "inconclusive: 35.5 µM [falling, single point]"}
{"molecule": "Cc1ccc(C2=NNC3(CCOC(C)(C)C3)S2)cc1", "note": "(configuration not stated)", "Potency": "inconclusive: 31.6 µM [falling, single point]"}
{"molecule": "CCCCOc1cccc(C(=O)NNC(=S)NC2CCCCC2)c1", "Potency": "inconclusive: 23.1 µM [falling, partial curve, poor fit]"}
{"molecule": "COc1ccccc1-n1c(=S)[nH]c2c(sc(=S)n2-c2ccccc2C)c1=O", "activity change, negative = inhibition": "inconclusive: -26.9%"}
{"molecule": "CC(=O)Nc1ccc(S(=O)(=O)Nc2cccc3cccnc23)cc1", "activity change, negative = inhibition": "inconclusive: -24%"}
{"molecule": "O=C(CSc1nnc(NC(=O)C2CC2)s1)NCc1ccccc1Cl", "activity change, negative = inhibition": "inactive: -2.94%"}
{"molecule": "CC(C)(C)c1ccc(C(=O)NC(Cc2c[nH]c3ccccc23)C(=O)OCC(=O)c2ccc(Br)cc2)cc1", "note": "(configuration not stated)", "Potency": "inconclusive: 35.5 µM [rising, partial curve, poor fit]"}
{"molecule": "Cc1ccc(Nc2nc(Nc3ccc(C)cc3)nc(SC3=NCCS3)n2)cc1", "activity change, negative = inhibition": "inactive: 10.1%"}
{"molecule": "O=C(CSc1nnc(-c2ccccc2O)o1)Oc1ccc(Br)cc1", "Potency": "inconclusive: 10.3 µM [rising, partial curve, poor fit]"}
{"molecule": "CCCc1nc2scc(-c3ccccc3)c2c(=O)n1N", "activity change, negative = inhibition": "inconclusive: 10.7%"}
{"molecule": "COC(=O)c1ccc(NC(=S)Nc2ccc3ccccc3c2)cc1", "Potency": "inconclusive: 9.2 µM [falling, partial curve]"}
{"molecule": "COc1cccc(C(=O)NCCn2ccc3ccccc32)c1", "Potency": "inconclusive: 4.61 µM [falling, partial curve, poor fit]"}
{"molecule": "OCCSc1ncnc2c1oc1ccccc12", "activity change, negative = inhibition": "inconclusive: -2.63%"}
{"molecule": "CSCCC(NS(=O)(=O)c1ccccc1F)C(=O)N1CCCCCC1", "note": "(configuration not stated)", "activity change, negative = inhibition": "inactive: -0.397%"}
{"molecule": "CCc1ccc(C)[n+](CC(=O)c2cccs2)c1", "activity change, negative = inhibition": "inactive: -0.695%"}
{"molecule": "Nc1ccc2nc(NC(=O)C3CCCCC3)sc2c1", "Potency": "inconclusive: 20 µM [falling, partial curve]"}
{"molecule": "Cc1cc(C)c2cc(C#N)c(SCC(=O)NCc3ccco3)nc2c1", "activity change, negative = inhibition": "inactive: 12.6%"}
{"molecule": "O=C(Nc1ccc2c(c1)C(=O)NC2=O)c1ccccc1Cl", "Potency": "inconclusive: 22.4 µM [falling, single point]"}
{"molecule": "NS(=O)(=O)c1ccc(CNC(=O)c2cc(-c3cccnc3)nc3ccccc23)cc1", "activity change, negative = inhibition": "inactive: 0.626%"}
